From publication doi:10.1101/271270

Protein sequences, listed by entry. Tags and fused reporters are not part of them. Lines headed by an entry give the natural chain unless they say otherwise; changes in a name come on top.
UniProt G5EE53: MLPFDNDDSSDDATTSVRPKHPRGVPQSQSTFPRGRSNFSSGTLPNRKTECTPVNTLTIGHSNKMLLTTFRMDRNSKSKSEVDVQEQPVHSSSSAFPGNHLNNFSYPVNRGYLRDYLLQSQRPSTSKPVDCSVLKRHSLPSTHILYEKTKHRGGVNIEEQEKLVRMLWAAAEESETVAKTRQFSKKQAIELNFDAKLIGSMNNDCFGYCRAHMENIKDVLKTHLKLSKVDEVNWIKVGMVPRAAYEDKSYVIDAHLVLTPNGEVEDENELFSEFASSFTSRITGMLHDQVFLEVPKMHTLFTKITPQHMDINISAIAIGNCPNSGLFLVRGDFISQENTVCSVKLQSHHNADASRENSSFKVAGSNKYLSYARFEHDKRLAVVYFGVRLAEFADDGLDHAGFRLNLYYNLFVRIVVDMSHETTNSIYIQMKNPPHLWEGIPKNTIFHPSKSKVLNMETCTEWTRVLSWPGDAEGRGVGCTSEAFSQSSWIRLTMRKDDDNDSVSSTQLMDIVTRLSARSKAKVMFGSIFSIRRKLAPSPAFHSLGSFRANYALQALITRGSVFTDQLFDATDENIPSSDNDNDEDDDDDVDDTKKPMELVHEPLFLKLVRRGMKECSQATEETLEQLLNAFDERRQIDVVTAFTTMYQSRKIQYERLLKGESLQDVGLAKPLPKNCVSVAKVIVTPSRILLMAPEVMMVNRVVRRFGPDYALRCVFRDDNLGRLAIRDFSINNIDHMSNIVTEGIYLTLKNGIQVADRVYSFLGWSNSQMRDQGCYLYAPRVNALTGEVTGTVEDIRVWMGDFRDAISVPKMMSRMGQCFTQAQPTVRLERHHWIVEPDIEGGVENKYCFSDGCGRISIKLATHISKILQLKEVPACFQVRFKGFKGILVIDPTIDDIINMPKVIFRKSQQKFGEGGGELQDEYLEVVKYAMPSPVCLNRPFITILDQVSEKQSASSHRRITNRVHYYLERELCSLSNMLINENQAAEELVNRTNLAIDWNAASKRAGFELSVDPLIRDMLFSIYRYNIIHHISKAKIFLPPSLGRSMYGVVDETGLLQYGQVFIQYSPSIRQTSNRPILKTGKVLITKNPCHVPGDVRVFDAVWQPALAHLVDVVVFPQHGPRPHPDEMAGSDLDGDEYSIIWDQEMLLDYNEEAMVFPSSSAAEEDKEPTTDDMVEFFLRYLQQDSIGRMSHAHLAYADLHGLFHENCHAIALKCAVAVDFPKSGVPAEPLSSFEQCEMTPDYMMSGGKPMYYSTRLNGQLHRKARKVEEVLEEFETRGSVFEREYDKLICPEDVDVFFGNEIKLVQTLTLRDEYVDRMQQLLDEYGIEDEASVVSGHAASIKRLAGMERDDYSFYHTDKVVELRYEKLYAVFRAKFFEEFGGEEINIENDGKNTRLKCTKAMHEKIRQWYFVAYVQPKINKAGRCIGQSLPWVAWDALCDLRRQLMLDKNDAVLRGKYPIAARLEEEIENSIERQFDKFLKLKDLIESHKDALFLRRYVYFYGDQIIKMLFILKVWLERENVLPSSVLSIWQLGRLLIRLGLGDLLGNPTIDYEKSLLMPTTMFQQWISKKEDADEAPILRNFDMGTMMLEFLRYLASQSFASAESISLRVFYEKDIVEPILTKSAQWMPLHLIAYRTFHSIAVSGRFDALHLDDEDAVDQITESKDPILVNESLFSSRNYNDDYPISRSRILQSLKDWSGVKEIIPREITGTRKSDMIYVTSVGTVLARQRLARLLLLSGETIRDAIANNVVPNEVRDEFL

Assays:
Test in all cases: affinity purification with mass spectrometry
[1] = target: GTSF-1 (T06A10.3), endogenous (C. elegans (endogenous in worm extracts)) (UniProt A3QMD6)
[2] = target: GTSF-1 (T06A10.3), endogenous (C. elegans (endogenous in worm extracts)) (UniProt A3QMD6); remark: listed apart in the source
[3] = target: GTSF-1 (T06A10.3), endogenous (C. elegans (endogenous in worm extracts)) (UniProt A3QMD6); remark: listed apart in the source

- binding [1]: binds
- binding [2]: binds
- binding [3]: binds
Substance: RRF-3, endogenous (from UniProt G5EE53) (enzyme)

Like-named read-outs stand apart in the source and are kept apart here. Results are given in words; binding and its absence hold for the method and conditions named. In cells and extracts the contact can be indirect. Here binding means that the protein was enriched with, or labelled near, the bait; the list need not be complete.
